# Experimental data taken from the supplement of paper PMC6411743.
# ± gives the standard deviation of the averaged measurements. The list shows a part of the results.
# Legend:
# Test in all cases: NP40-soluble protein abundance relative to vehicle (solubility fold change) (ratio); higher = more soluble protein in presence of GTP
# UQCRFS1 = target: T1, UQCRFS1 (UniProt P47985)
# T1 sequence (whole entry): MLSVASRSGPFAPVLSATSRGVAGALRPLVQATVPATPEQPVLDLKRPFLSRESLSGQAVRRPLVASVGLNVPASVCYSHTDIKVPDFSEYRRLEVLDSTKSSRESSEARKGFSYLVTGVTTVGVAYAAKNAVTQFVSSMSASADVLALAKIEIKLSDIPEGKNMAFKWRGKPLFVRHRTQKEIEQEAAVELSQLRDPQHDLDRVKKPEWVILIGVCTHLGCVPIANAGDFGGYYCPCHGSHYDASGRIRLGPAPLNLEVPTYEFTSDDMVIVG
# Method in brief: (§1)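 Values are fold changes against the detergent-processed vehicle, based on vsn-normalised intensities. Jurkat crude lysate was treated at eight concentrations from 0.1 to 10 mM (10 min at room temperature, then 3 min at 37 °C), solubilised with 0.8% NP40 and benzonase, ultracentrifuged and analysed by TMT-labelled LC-MS/MS over three independent experiments.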
# [1] = target: T2, UniProt P31350 and related entries
# T2 sequence (whole entry): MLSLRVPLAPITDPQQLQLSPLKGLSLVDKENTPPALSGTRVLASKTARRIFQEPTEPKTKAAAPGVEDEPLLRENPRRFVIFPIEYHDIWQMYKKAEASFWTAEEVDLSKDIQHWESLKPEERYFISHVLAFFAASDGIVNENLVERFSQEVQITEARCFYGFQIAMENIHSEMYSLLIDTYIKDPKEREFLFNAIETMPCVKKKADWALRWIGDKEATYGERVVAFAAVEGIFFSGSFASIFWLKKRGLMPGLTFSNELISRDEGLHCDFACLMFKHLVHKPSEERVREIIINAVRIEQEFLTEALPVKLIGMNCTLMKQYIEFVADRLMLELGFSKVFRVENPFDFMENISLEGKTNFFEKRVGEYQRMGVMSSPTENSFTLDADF
# Method in brief: as §1
# [2] = target: T3, UniProt P32856 and related entries
# T3 sequence (whole entry): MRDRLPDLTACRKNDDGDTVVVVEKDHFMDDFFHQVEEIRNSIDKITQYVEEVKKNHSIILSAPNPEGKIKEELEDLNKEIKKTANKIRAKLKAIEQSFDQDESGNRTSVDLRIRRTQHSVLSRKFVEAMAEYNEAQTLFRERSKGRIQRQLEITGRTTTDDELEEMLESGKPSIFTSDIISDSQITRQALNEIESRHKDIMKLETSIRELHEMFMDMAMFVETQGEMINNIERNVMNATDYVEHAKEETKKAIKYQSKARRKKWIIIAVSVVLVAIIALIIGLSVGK
# Method in brief: as §1
# UniProt P35626 = target: T4, UniProt P35626
# T4 sequence (whole entry): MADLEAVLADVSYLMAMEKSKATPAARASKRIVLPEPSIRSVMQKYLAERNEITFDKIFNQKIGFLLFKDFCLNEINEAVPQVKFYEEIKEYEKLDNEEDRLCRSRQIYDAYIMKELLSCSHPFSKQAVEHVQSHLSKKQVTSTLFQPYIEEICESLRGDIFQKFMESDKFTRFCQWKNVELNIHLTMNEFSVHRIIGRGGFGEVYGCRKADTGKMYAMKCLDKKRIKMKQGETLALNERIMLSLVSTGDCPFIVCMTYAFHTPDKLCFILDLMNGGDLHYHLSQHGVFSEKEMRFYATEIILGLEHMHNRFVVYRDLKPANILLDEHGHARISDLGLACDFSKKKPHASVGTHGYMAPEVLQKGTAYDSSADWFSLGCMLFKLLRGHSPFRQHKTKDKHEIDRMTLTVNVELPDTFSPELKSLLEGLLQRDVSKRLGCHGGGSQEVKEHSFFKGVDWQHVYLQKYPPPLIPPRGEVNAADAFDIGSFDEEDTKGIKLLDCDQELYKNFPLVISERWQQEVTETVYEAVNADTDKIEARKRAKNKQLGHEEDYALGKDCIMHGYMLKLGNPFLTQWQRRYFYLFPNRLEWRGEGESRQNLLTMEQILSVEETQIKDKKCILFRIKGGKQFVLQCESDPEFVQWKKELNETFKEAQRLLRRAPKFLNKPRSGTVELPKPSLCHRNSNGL
# Method in brief: as §1
# [3] = target: T5, UniProt P42224 and related entries
# T5 sequence (whole entry): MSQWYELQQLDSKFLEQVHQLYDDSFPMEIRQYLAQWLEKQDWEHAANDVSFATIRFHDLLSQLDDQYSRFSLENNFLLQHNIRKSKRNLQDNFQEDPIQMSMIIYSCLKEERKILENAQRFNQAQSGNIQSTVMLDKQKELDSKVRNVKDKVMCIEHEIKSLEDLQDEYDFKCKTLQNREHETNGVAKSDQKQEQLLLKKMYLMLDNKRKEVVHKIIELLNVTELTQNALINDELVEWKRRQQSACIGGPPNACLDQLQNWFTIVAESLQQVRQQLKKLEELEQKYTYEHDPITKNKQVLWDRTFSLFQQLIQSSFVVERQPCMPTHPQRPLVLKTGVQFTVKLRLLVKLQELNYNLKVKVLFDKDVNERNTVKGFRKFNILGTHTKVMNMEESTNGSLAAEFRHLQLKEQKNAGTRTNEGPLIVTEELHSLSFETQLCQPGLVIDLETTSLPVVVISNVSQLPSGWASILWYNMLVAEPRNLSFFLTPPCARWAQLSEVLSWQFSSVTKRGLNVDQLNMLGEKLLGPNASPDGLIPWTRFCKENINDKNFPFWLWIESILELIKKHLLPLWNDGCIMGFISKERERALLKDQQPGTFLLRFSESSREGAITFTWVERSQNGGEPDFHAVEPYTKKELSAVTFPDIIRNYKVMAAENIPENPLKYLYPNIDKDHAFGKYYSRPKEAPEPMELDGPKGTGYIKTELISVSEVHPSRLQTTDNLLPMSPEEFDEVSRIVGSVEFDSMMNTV
# Method in brief: as §1
# WAS = target: T6, WAS (UniProt P42768)
# T6 sequence (whole entry): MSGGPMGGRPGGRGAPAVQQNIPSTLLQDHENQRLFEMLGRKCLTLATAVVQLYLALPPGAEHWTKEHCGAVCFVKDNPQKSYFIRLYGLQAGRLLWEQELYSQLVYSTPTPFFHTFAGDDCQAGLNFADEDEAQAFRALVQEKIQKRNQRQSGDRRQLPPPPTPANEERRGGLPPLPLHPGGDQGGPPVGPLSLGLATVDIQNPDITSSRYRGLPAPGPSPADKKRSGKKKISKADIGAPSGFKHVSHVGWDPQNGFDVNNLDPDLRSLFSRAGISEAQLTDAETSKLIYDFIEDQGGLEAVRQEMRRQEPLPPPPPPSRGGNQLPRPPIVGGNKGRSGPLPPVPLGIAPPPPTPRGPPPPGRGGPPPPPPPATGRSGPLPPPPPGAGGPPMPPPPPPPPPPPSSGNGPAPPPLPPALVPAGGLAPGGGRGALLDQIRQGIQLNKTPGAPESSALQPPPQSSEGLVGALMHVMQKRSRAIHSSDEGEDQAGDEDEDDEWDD
# Method in brief: as §1
structure (smiles),measurement,setting,value
Nc1nc2c(ncn2[C@@H]2O[C@H](COP(=O)(O)OP(=O)(O)OP(=O)(O)O)[C@@H](O)[C@H]2O)c(=O)[nH]1 [guanosine triphosphate],NP40-soluble protein abundance,UQCRFS1; concentration: 4mM,0.898 ± 0.035
same,NP40-soluble protein abundance,UQCRFS1; concentration: 6mM,0.922 ± 0.019
same,NP40-soluble protein abundance,UQCRFS1; concentration: 8mM,0.93 ± 0.016
same,NP40-soluble protein abundance,UQCRFS1; concentration: 10mM,0.875 ± 0.051
same,NP40-soluble protein abundance,[1]; concentration: 0.1mM,0.975 ± 0.043
same,NP40-soluble protein abundance,[1]; concentration: 0.5mM,0.963 ± 0.028
same,NP40-soluble protein abundance,[1]; concentration: 1mM,0.905 ± 0.038
same,NP40-soluble protein abundance,[1]; concentration: 2mM,0.894 ± 0.012
same,NP40-soluble protein abundance,[1]; concentration: 4mM,0.868 ± 0.023
same,NP40-soluble protein abundance,[1]; concentration: 6mM,0.858 ± 0.018
same,NP40-soluble protein abundance,[1]; concentration: 8mM,0.838 ± 0.031
same,NP40-soluble protein abundance,[1]; concentration: 10mM,0.834 ± 0.021
same,NP40-soluble protein abundance,[2]; concentration: 0.1mM,1.08 ± 0.085
same,NP40-soluble protein abundance,[2]; concentration: 0.5mM,0.952 ± 0.018
same,NP40-soluble protein abundance,[2]; concentration: 1mM,1.04 ± 0.1
same,NP40-soluble protein abundance,[2]; concentration: 2mM,1.04 ± 0.14
same,NP40-soluble protein abundance,[2]; concentration: 4mM,0.916 ± 0.054
same,NP40-soluble protein abundance,[2]; concentration: 6mM,1.04 ± 0.035
same,NP40-soluble protein abundance,[2]; concentration: 8mM,0.88 ± 0.051
same,NP40-soluble protein abundance,[2]; concentration: 10mM,0.86 ± 0.15
same,NP40-soluble protein abundance,UniProt P35626; concentration: 0.1mM,1.05 ± 0.097
same,NP40-soluble protein abundance,UniProt P35626; concentration: 0.5mM,1.05 ± 0.085
same,NP40-soluble protein abundance,UniProt P35626; concentration: 1mM,0.943 ± 0.1
same,NP40-soluble protein abundance,UniProt P35626; concentration: 2mM,0.96 ± 0.066
same,NP40-soluble protein abundance,UniProt P35626; concentration: 4mM,0.926 ± 0.077
same,NP40-soluble protein abundance,UniProt P35626; concentration: 6mM,0.969 ± 0.035
same,NP40-soluble protein abundance,UniProt P35626; concentration: 8mM,0.926 ± 0.025
same,NP40-soluble protein abundance,UniProt P35626; concentration: 10mM,0.878 ± 0.062
same,NP40-soluble protein abundance,[3]; concentration: 0.1mM,1.02 ± 0.033
same,NP40-soluble protein abundance,[3]; concentration: 0.5mM,1.01 ± 0.025
same,NP40-soluble protein abundance,[3]; concentration: 1mM,0.972 ± 0.034
same,NP40-soluble protein abundance,[3]; concentration: 2mM,0.941 ± 0.045
same,NP40-soluble protein abundance,[3]; concentration: 4mM,0.928 ± 0.045
same,NP40-soluble protein abundance,[3]; concentration: 6mM,0.921 ± 0.06
same,NP40-soluble protein abundance,[3]; concentration: 8mM,0.926 ± 0.025
same,NP40-soluble protein abundance,[3]; concentration: 10mM,0.875 ± 0.053
same,NP40-soluble protein abundance,WAS; concentration: 0.1mM,0.925 ± 0.064
same,NP40-soluble protein abundance,WAS; concentration: 0.5mM,0.849 ± 0.013
same,NP40-soluble protein abundance,WAS; concentration: 1mM,0.973 ± 0.06
same,NP40-soluble protein abundance,WAS; concentration: 2mM,0.9283 ± 0.005
same,NP40-soluble protein abundance,WAS; concentration: 4mM,0.947 ± 0.017
same,NP40-soluble protein abundance,WAS; concentration: 6mM,0.926 ± 0.034
same,NP40-soluble protein abundance,WAS; concentration: 8mM,1 ± 0.048
same,NP40-soluble protein abundance,WAS; concentration: 10mM,1.01 ± 0.067

# No new results follow: an excerpt of the list.
structure (smiles),measurement,setting,value
Nc1nc2c(ncn2[C@@H]2O[C@H](COP(=O)(O)OP(=O)(O)OP(=O)(O)O)[C@@H](O)[C@H]2O)c(=O)[nH]1 [guanosine triphosphate],NP40-soluble protein abundance,[3]; concentration: 0.5mM,1.01 ± 0.025
same,NP40-soluble protein abundance,[3]; concentration: 1mM,0.972 ± 0.034
same,NP40-soluble protein abundance,[3]; concentration: 2mM,0.941 ± 0.045
